PubChem BioAssay AID1671195, Yale University | 2021

- Assay: 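Knockdowns that increase or decrease uptake of fluorescent LDL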 (primary screen)
- Cell system: human Huh7 hepatoma cells
- Reagent: siRNA pool against human genes, 18 nM
- Time to read-out: about 2 to 2.5 days of knockdown, then 8 h LDL uptake
- Treatment: DiI-labelled LDL at 30 µg/ml for 8 h, in lipoprotein-deficient serum medium
- Read-out: 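Fluorescent LDL signal imaged in cells, scaled to the plate median, robust z-score for each replicate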
- Scale: robust z-score: higher = more LDL uptake after knockdown
- Hit rule: 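Active when two or more replicates show a robust z-score above 2 or below -2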
The whole screen tested about 22,000 reagents; below is a random part of them. Over the whole deposit, about 1,510 (6.9%) are marked active. 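Active includes knockdowns raising or lowering LDL uptake; positive z-scores mean more uptake, negative mean less.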 No sequences are given here.

The opening 7 entries, ahead of the listing:
gene | robust z-score, replicate 1 | robust z-score, replicate 2 | robust z-score, replicate 3 | Outcome
H4C5 | -1.9 | 0.0447 | -0.867 | inactive
TRAM1 | -2.34 | -1.36 | -1.23 | inactive
IQSEC1 | -0.075 | 1.1 | 2.76 | inactive
GABRE | 0.966 | 1.02 | 0.813 | inactive
HOXB9 | 0.0687 | -0.245 | 0.549 | inactive
TAPBPL | -0.2 | -1.5 | 0.163 | inactive
HEPN1 | 0.0727 | -0.133 | -1.13 | inactive

Main list, from the first entry:
gene | robust z-score, replicate 1 | robust z-score, replicate 2 | robust z-score, replicate 3 | Outcome
H4C5 | -1.9 | 0.0447 | -0.867 | inactive
TRAM1 | -2.34 | -1.36 | -1.23 | inactive
IQSEC1 | -0.075 | 1.1 | 2.76 | inactive
GABRE | 0.966 | 1.02 | 0.813 | inactive
HOXB9 | 0.0687 | -0.245 | 0.549 | inactive
TAPBPL | -0.2 | -1.5 | 0.163 | inactive
HEPN1 | 0.0727 | -0.133 | -1.13 | inactive
RPSAP31 | -0.204 | -0.254 | -0.116 | inactive
XRCC6 | 0.0206 | 0.113 | 0.242 | inactive
PEBP4 | -0.26 | -0.516 | -0.536 | inactive
TRIP6 | 0.263 | -0.0671 | 0.415 | inactive
LINC01060 | -0.118 | 0.0954 | -0.123 | inactive
RNLS | 0.365 | 0.283 | 3.53 | inactive
RIBC1 | 0.726 | 0.678 | 0.918 | inactive
PPP4R4 | -0.476 | -0.352 | -0.394 | inactive
TXN | 2.34 | 2.81 | 2.19 | active
GSKIP | 0.312 | -0.147 | -0.109 | inactive
RPL36AL | -0.705 | -0.727 | -0.999 | inactive
ANKDD1B | 2.64 | 1.35 | 1.7 | inactive
AQP8 | 1.05 | 0.536 | 1.49 | inactive
CHL1 | 0.509 | -0.65 | -0.826 | inactive
C10orf71 | -0.24 | 0.305 | -0.0681 | inactive
REEP5 | -1.89 | -2.86 | -0.65 | inactive
LOC388938 (retired record) | 0.574 | 0.431 | 0.437 | inactive
NAT8 | -1.17 | -1.52 | -1.64 | inactive
LRCH3 | 1.07 | 0.29 | 0.504 | inactive
ZNF528-AS1 | 0.0191 | 0.261 | 0.117 | inactive
PPIAP72 | -0.0821 | 0.548 | 0.199 | inactive
CPT2 | -2.88 | 0.012 | 0.517 | inactive
TRAPPC2 | -0.211 | -0.413 | -1.72 | inactive
PLAC4 | 4.99 | 3.99 | 4.29 | active
CAPN2 | -1.63 | -0.88 | -1.16 | inactive
ABHD2 | -0.0223 | -0.338 | -0.0234 | inactive
ZBTB40 | 1.59 | 1.31 | 1.31 | inactive
TSPAN12 | -0.551 | -1.2 | -0.523 | inactive
POLR1F | 0.525 | 0.532 | 0.981 | inactive
LOC439960 (retired record) | -0.347 | -0.509 | -0.918 | inactive
TSSC4 | -1.12 | -0.464 | -1.69 | inactive
TSC1 | -0.149 | -1.46 | 1.2 | inactive
PUM2 | 0.24 | 0.148 | 0.754 | inactive
POR | -2.3 | -1.64 | -2.22 | active
TMEM138 | -1.24 | -2.22 | -2.14 | active
UBR2 | -0.586 | -0.0258 | -1.11 | inactive
NID1 | 0.2 | 0.557 | -0.323 | inactive
METTL25 | 0.288 | -0.405 | -0.175 | inactive
LINC02483 | 1.82 | 2.18 | 1.85 | inactive
RPL7AP34 | -0.839 | -1.4 | -1.48 | inactive
LOC387880 (retired record) | -1.27 | -1.52 | -1.31 | inactive
COX7B | 0.0936 | 0.44 | 0.759 | inactive
CARNMT1 | 0.841 | -0.205 | -0.0948 | inactive
MEGF11 | -1.68 | -1.99 | -1.43 | inactive
ZNF407-AS1 | 1.58 | 1.49 | 1.36 | inactive
LOC340148 (retired record) | -0.835 | -0.654 | -1.04 | inactive
FAM9B | -0.389 | 0.113 | -0.144 | inactive
ALDOA | -0.499 | -0.413 | -0.665 | inactive
ADGRD2 | -1.2 | -0.897 | -0.978 | inactive
AZIN1 | -0.627 | 0.229 | -0.755 | inactive
OR1F12P | 1.28 | 0.212 | 1.09 | inactive
IMP4 | -0.0621 | 0.0958 | 0.0646 | inactive
LYPLAL1 | -0.305 | 0.25 | 0.337 | inactive
ZNF630 | 0.678 | 0.668 | 0.58 | inactive
ZCCHC3 | -0.904 | -0.405 | -0.738 | inactive
SCIN | -1.03 | -0.437 | -0.782 | inactive
CP | 0.744 | 0.641 | 0.587 | inactive
LAP3P2 | -1.31 | -1.79 | -1.37 | inactive
TMEM106C | -0.617 | -1.28 | -0.309 | inactive
SLC25A13 | -1.23 | -0.82 | -0.705 | inactive
LINC00523 | 0.258 | 0.214 | 0.352 | inactive
ELL | -0.221 | -0.433 | -0.537 | inactive
LINC01600 | -0.829 | -0.549 | -1.12 | inactive
SH2B2 | 1.85 | 1.1 | -0.318 | inactive
LOC440102 (retired record) | 1.05 | 0.937 | 0.4 | inactive
RAB14 | -0.321 | -0.163 | 0.0527 | inactive
PF4 | 0.01 | -0.0185 | 0.0053 | inactive
CTNNAL1 | -0.229 | 0.933 | 0.496 | inactive
IFNWP2 | 1.1 | 0.0834 | 0.666 | inactive
TRIM13 | 2.24 | 0.618 | 1.42 | inactive
LINC00268 | 0.576 | 0.13 | 0.363 | inactive
MYLK4 | -0.393 | -0.356 | -0.161 | inactive
IL7 | -1.22 | -1.24 | -0.941 | inactive
MFHAS1 | 0.275 | 0.54 | 0.48 | inactive
MED12 | -0.326 | -1.91 | -0.817 | inactive
SETD9 | -1.23 | 0.0176 | -0.959 | inactive
TBC1D3P2 | 0.0663 | -0.0693 | -0.42 | inactive
CES3 | 1.22 | 1.53 | 1.39 | inactive
H2AC20 | -0.592 | -2.08 | -1.71 | inactive
EPHX4 | 0.904 | 0.726 | 0.965 | inactive
